From the supplement of paper PMC4635364
Where a name gives a salt, the structure may show the parent alone. Some of the results follow. This data set is noisy: repeats of one test often differ as much as different tests do.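 Cells: ReNCell VM human fetal ventral-midbrain neural progenitors, differentiated mitogen-free. Blinded raters compared doublecortin-stained (early neurons) or tyrosine hydroxylase-stained (dopaminergic neurons) images with untreated wells, where 0 means no change. After repeats and both raters were averaged, compounds scoring 2 or above became hits for retesting.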

Tests used:
ReNCell VM [1] = experiment: neuronal differentiation score (DCX+ cell fraction vs untreated, manual image score) (score (-3 to 3)); higher = more neuronal differentiation; conditions: 2 uM, 2 weeks
ReNCell VM [2] = experiment: dopaminergic neuron differentiation score (TH+ cell fraction vs untreated, manual image score) (score (0 to 3)); higher = more TH+ dopaminergic neuron differentiation; conditions: 2 uM, 4 weeks, BDNF 10 ng/ml + GDNF 10 ng/ml

## C[N+]1(C)[C@@H]2CC[C@H]1C[C@@H](OC(=O)C(O)c1ccccc1)C2 (stereo partly specified)
ReNCell VM [1]; library: Spectrum
  neuronal differentiation score: inactive: 0
ReNCell VM [2]; library: Spectrum
  dopaminergic neuron differentiation score: inactive: 1

## CC(C)[C@H](N)C(=O)OCC(CO)OCn1cnc2c(=O)nc(N)[nH]c21 (stereo partly specified)
ReNCell VM [1]; library: Spectrum
  neuronal differentiation score: inactive: 1
ReNCell VM [2]; library: Spectrum
  dopaminergic neuron differentiation score: inactive: 0

## Cc1cnc(C(=O)O)c[n+]1[O-]
ReNCell VM [1]; library: Spectrum
  neuronal differentiation score: inactive: 0
ReNCell VM [2]; library: Spectrum
  dopaminergic neuron differentiation score: inactive: 0

## Nc1ccn([C@@H]2O[C@H](CO)[C@@H](O)C2(F)F)c(=O)n1 [Gemcitabine]
ReNCell VM [1]; library: Prestwick
  neuronal differentiation score: inactive: 0
ReNCell VM [2]; library: Prestwick
  dopaminergic neuron differentiation score: inactive: 0

## CC(C)=CCC/C(C)=C/CC/C(C)=C/CC/C(C)=C/CC/C(C)=C/CC/C(C)=C/CC/C(C)=C/CC/C(C)=C/CC/C(C)=C/CO
ReNCell VM [1]; library: Spectrum
  neuronal differentiation score: inactive: 0
ReNCell VM [2]; library: Spectrum
  dopaminergic neuron differentiation score: inactive: 0

## Nc1ccc(S(=O)(=O)Nc2cnc3ccccc3n2)cc1
ReNCell VM [1]; library: Spectrum
  neuronal differentiation score: inactive: 0
ReNCell VM [2]; library: Spectrum
  dopaminergic neuron differentiation score: inactive: 0

## Clc1ccc(CCC(Cn2ccnc2)Sc2c(Cl)cccc2Cl)cc1 (stereo unspecified) [Butoconazole nitrate]
ReNCell VM [1]; library: Prestwick
  neuronal differentiation score: inactive: 0
ReNCell VM [2]; library: Prestwick
  dopaminergic neuron differentiation score: inactive: 0

## CC(C)NCC(O)COc1cccc2ccccc12 (stereo unspecified) [Propranolol hydrochloride]
ReNCell VM [1]; library: Tocriscreen
  neuronal differentiation score: inactive: 0
ReNCell VM [2]; library: Tocriscreen
  dopaminergic neuron differentiation score: inactive: 0

## CC[C@H](C)C(=O)O[C@H]1C[C@H](O)C=C2C=C[C@H](C)[C@H](CC[C@@H](O)C[C@@H](O)CC(=O)O)[C@H]21 [Pravastatin]
ReNCell VM [1]; library: Prestwick
  neuronal differentiation score: inactive: 0
ReNCell VM [2]; library: Prestwick
  dopaminergic neuron differentiation score: active: 3

## C[n+]1cc2c3c(ccc2c2ccc4cc5c(cc4c21)OCO5)OCO3 [Sanguinarine chloride]
ReNCell VM [1]; library: LOPAC
  neuronal differentiation score: inactive: 0
ReNCell VM [2]; library: LOPAC
  dopaminergic neuron differentiation score: inactive: 0

## CC(=O)NCCc1ccc(O)c(O)c1 [N-Acetyldopamine monohydrate]
ReNCell VM [1]; library: LOPAC
  neuronal differentiation score: inactive: 0
ReNCell VM [2]; library: LOPAC
  dopaminergic neuron differentiation score: inactive: 1

## CCCCC/C=C/CCC(=O)N[C@H]1[C@H](Oc2c3cc4cc2Oc2ccc(cc2Cl)[C@@H](O[C@@H]2O[C@H](CO)[C@@H](O)[C@H](O)[C@H]2NC(C)=O)[C@@H]2NC(=O)[C@H](NC(=O)[C@@H]4NC(=O)[C@H]4NC(=O)C(Cc5ccc(c(Cl)c5)O3)NC(=O)[C@H](N)c3ccc(O)c(c3)Oc3cc(O)cc4c3)c3ccc(O)c(c3)-c3c(OC4O[C@H](CO)[C@@H](O)[C@H](O)[C@@H]4O)cc(O)cc3[C@@H](C(=O)O)NC2=O)O[C@H](CO)[C@@H](O)[C@@H]1O (stereo partly specified) [TEICOPLANIN [A(2-1) shown]]
ReNCell VM [1]; library: Spectrum
  neuronal differentiation score: inactive: 0
ReNCell VM [2]; library: Spectrum
  dopaminergic neuron differentiation score: inactive: 0

## CCC(=O)Oc1ccc2c(c1)CC[C@@H]1[C@@H]2CC[C@]2(C)[C@@H](OC(=O)CC)CC[C@@H]12
ReNCell VM [1]; library: Spectrum
  neuronal differentiation score: inactive: 0
ReNCell VM [2]; library: Spectrum
  dopaminergic neuron differentiation score: inactive: 0

## COc1cc(Cc2cnc(N)nc2N)cc(OC)c1OC
ReNCell VM [1]; library: Spectrum
  neuronal differentiation score: inactive: 0
ReNCell VM [2]; library: Spectrum
  dopaminergic neuron differentiation score: inactive: 0

## CC1(C)CC[C@]2(C(=O)O)CC[C@]3(C)C(=CCC4[C@@]5(C)CC[C@@H](O)C(C)(C)C5CC[C@]43C)C2C1 (stereo partly specified)
ReNCell VM [1]; library: Spectrum
  neuronal differentiation score: inactive: 0
ReNCell VM [2]; library: Spectrum
  dopaminergic neuron differentiation score: inactive: 0

## Cc1ccc(C(=O)c2ccc(CC(=O)O)n2C)cc1
ReNCell VM [1]; library: Spectrum
  neuronal differentiation score: inactive: 0
ReNCell VM [2]; library: Spectrum
  dopaminergic neuron differentiation score: inactive: 0

## Cc1cn(C2OC[C@@H](O)[C@@H]2CO)c(=O)[nH]c1=O (stereo partly specified)
ReNCell VM [1]; library: Natural
  neuronal differentiation score: inactive: 0
ReNCell VM [2]; library: Natural
  dopaminergic neuron differentiation score: inactive: 0

## O=C(CCCN1CCC(O)(c2cccc(C(F)(F)F)c2)CC1)c1ccc(F)cc1 [Trifluperidol hydrochloride]
ReNCell VM [1]; library: LOPAC
  neuronal differentiation score: inactive: 0
ReNCell VM [2]; library: LOPAC
  dopaminergic neuron differentiation score: inactive: 0

## COc1cc2cc(Oc3ccc4ccc(=O)oc4c3)c(=O)oc2cc1O [daphnoretin]
ReNCell VM [1]; library: Natural
  neuronal differentiation score: inactive: 0
ReNCell VM [2]; library: Natural
  dopaminergic neuron differentiation score: inactive: 0

## C1CCC2(CC1)CCNCC2 [4,4-Pentamethylenepiperidine hydrochloride]
ReNCell VM [1]; library: Tocriscreen
  neuronal differentiation score: inactive: 0
ReNCell VM [2]; library: Tocriscreen
  dopaminergic neuron differentiation score: inactive: 0

## COc1c(O)cc2oc(Oc3ccc(O)cc3)cc(=O)c2c1O [capillarisin]
ReNCell VM [1]; library: Natural
  neuronal differentiation score: inactive: 0
ReNCell VM [2]; library: Natural
  dopaminergic neuron differentiation score: inactive: 0

## NS(=O)(=O)c1cc2c(cc1Cl)NC(C(Cl)Cl)NS2(=O)=O (stereo unspecified) [Trichlormethiazide]
ReNCell VM [1]; library: Prestwick
  neuronal differentiation score: inactive: 0
ReNCell VM [2]; library: Prestwick
  dopaminergic neuron differentiation score: inactive: 0

## CC1=C(/C=C/C(C)=C/C=C/C(C)=C/C=C/C=C(C)/C=C/C=C(C)/C=C/C2=C(C)C(=O)[C@@H](O)CC2(C)C)C(C)(C)C[C@H](O)C1=O
ReNCell VM [1]; library: Spectrum
  neuronal differentiation score: inactive: 0
ReNCell VM [2]; library: Spectrum
  dopaminergic neuron differentiation score: inactive: 0

## O=c1ncccn1[C@@H]1O[C@H](CO)[C@@H](O)[C@H]1O [Zebularine]
ReNCell VM [1]; library: Tocriscreen
  neuronal differentiation score: inactive: 0
ReNCell VM [2]; library: Tocriscreen
  dopaminergic neuron differentiation score: inactive: 0

## CC1(C)CCC[C@]2(C)[C@H]3CC(=O)O[C@]3(C)CC[C@@H]12
ReNCell VM [1]; library: Spectrum
  neuronal differentiation score: inactive: 0
ReNCell VM [2]; library: Spectrum
  dopaminergic neuron differentiation score: inactive: 0

## CCOC(=O)C1=C(COCCN)NC(C)=C(C(=O)OC)C1c1ccccc1Cl (stereo unspecified) [Amlodipine besylate]
ReNCell VM [1]; library: Tocriscreen
  neuronal differentiation score: inactive: 0
ReNCell VM [2]; library: Tocriscreen
  dopaminergic neuron differentiation score: inactive: 0

## CC1(C)C=Cc2c(c3c(c4c(=O)c(-c5ccc(O)c(O)c5)coc24)OC(C)(C)CC3)O1
ReNCell VM [1]; library: Spectrum
  neuronal differentiation score: inactive: 0
ReNCell VM [2]; library: Spectrum
  dopaminergic neuron differentiation score: inactive: 0

## Nc1nc2c(nc(Br)n2C2OC3COP(=O)(O)O[C@@H]3C2O)c(=O)[nH]1 (stereo partly specified) [8-Bromo-cGMP sodium]
ReNCell VM [1]; library: LOPAC
  neuronal differentiation score: inactive: 0
ReNCell VM [2]; library: LOPAC
  dopaminergic neuron differentiation score: inactive: 0

## CCOC(=O)C1=C(C)NC(C)=C(C(=O)OCC)C1c1ccccc1/C=C/C(=O)OC(C)(C)C [Lacidipine]
ReNCell VM [1]; library: Prestwick
  neuronal differentiation score: inactive: 0
ReNCell VM [2]; library: Prestwick
  dopaminergic neuron differentiation score: inactive: 1

## CC[C@H](C)[C@H](N)C(=O)O
ReNCell VM [1]; library: Spectrum
  neuronal differentiation score: inactive: -1
ReNCell VM [2]; library: Spectrum
  dopaminergic neuron differentiation score: inactive: 0

## C/C(=C(\CCOP(=O)(O)O)SC(=O)c1ccccc1)N(C=O)Cc1cnc(C)nc1N [Benfotiamine]
ReNCell VM [1]; library: Prestwick
  neuronal differentiation score: inactive: 0
ReNCell VM [2]; library: Prestwick
  dopaminergic neuron differentiation score: inactive: 0

## Oc1nc2cc(Cl)c(Cl)cc2nc1O
ReNCell VM [1]; library: Spectrum
  neuronal differentiation score: inactive: 0
ReNCell VM [2]; library: Spectrum
  dopaminergic neuron differentiation score: inactive: 0

## O=C1CC2(CCCC2)CC(=O)N1CCNCC1COc2ccccc2O1 (stereo unspecified)
ReNCell VM [1]; library: Tocriscreen
  neuronal differentiation score: inactive: 0
ReNCell VM [2]; library: Tocriscreen
  dopaminergic neuron differentiation score: inactive: 0
